Laboratory results as given in patent US20120225065A1.
Results are given in words; binding and its absence hold for the method and conditions named. Some binding calls cover weakened binding; strength is not graded here.

Protein sequences, listed by entry. Tags and fused reporters are not part of them. Lines headed by an entry give the natural chain unless they say otherwise; changes in a name come on top.
UniProt Q9HBE4: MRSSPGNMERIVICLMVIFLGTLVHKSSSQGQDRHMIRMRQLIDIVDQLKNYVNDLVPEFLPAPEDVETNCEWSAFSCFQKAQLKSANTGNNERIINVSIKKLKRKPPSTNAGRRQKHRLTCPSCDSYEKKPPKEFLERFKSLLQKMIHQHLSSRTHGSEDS

Experiments:
[1] = biological target: Recombinant human IL-21 (human) (UniProt Q9HBE4); experiment: direct ELISA
[2] = biological target: Recombinant human IL-21 (human) (UniProt Q9HBE4); experiment: Western blot
[3] = biological target: Recombinant human IL-21 (human) (UniProt Q9HBE4); experiment: SPR (Biacore T100), mAb immobilised, 100 nM IL-21 injected

Measured: binding

B1: Human anti-human IL-21 monoclonal antibody clone 366.552.11 (antibody, V domains shown)
VH: QVQLQESGPGLVKPSETLSLTCTVSGGSISSDFWGWIRQPPGKGLEWIGYISSRGSTNYNPSLKRRVTISVDTSRNQFSLKLSSVTAADTAVYYCARSAGVTDFDFWGQGTLVTVSS
VL: DIQMTQSPSSVSASVGDRVTITCRASQGISSWLAWYQHKPGKAPKLLIYVASSLQSGVPSRFSGSGSGTDFTLTISSLQPEDFATYYCQQANSFPLTFGGGTKVEIK
binds: all assays above

B2: Human anti-human IL-21 monoclonal antibody clone 366.328.10 (antibody, V domains shown)
VH: EVQLVESGGGLVKPGGSLRLSCAASGFIFSSYSMNWVRQAPGKGLEWVSSITSGSYYIHYADSVKGRFTISRDNAKNSLYLQMNSLRAEDTAVYYCVRERGWGYYGMDVWGQGTTVTVSS
VL: AIQLTQSPSSLSASVGDRVTITCRASQDIDSALAWYQQKPGKAPKILIHDASSLESGVPSRFSGSGSGTDFTLTISSLQPEDFATYYCQQFNSYPYTFGQGTKLEIK
binds: all assays above
